# Test results as given in the supplement of paper PMC8728848.
# The other results are listed elsewhere or left out.
# What was measured:
# Assay in all cases: glycan array binding signal (z-score within array); higher = stronger binding
# Details in all cases: glycan notation: IUPAC condensed, linker removed
# [1] = target: Gal(b1-4)GlcNAc(b1-3)Gal(b1-4)GlcNAc(b1-3)Gal(b1-4)GlcNAc(b1-2)Man(a1-3)[Gal(b1-4)GlcNAc(b1-3)Gal(b1-4)GlcNAc(b1-3)Gal(b1-4)GlcNAc(b1-2)Man(a1-6)]Man(b1-4)GlcNAc(b1-4)GlcNAc
# Outline: (§1)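 Negative Z-scores can be read as non-binding. The Z-score is calculated within each array and then averaged across arrays of one protein sequence at different concentrations or buffers and across linkers. Arrays, 3228 in all, were curated from the Consortium for Functional Glycomics database and kept only where the protein sequence was available.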
# [2] = target: Gal(b1-4)GlcNAc(b1-3)Gal(b1-4)GlcNAc(b1-3)Gal(b1-4)GlcNAc(b1-2)Man(a1-3)[Gal(b1-4)GlcNAc(b1-3)Gal(b1-4)GlcNAc(b1-3)Gal(b1-4)GlcNAc(b1-2)Man(a1-6)]Man(b1-4)GlcNAc(b1-4)[Fuc(a1-6)]GlcNAc
# Outline: as §1
# [3] = target: Gal(b1-4)GlcNAc(b1-3)Gal(b1-4)GlcNAc(b1-3)Gal(b1-4)GlcNAc(b1-2)[Gal(b1-4)GlcNAc(b1-3)Gal(b1-4)GlcNAc(b1-3)Gal(b1-4)GlcNAc(b1-6)]Man(a1-6)[Gal(b1-4)GlcNAc(b1-3)Gal(b1-4)GlcNAc(b1-3)Gal(b1-4)GlcNAc(b1-2)Man(a1-3)]Man(b1-4)GlcNAc(b1-4)[Fuc(a1-6)]GlcNAc
# Outline: as §1
# [4] = target: Gal(b1-4)GlcNAc(b1-3)Gal(b1-4)GlcNAc(b1-3)Gal(b1-4)GlcNAc(b1-3)Gal(b1-4)GlcNAc(b1-2)Man(a1-3)[Gal(b1-4)GlcNAc(b1-3)Gal(b1-4)GlcNAc(b1-3)Gal(b1-4)GlcNAc(b1-3)Gal(b1-4)GlcNAc(b1-2)Man(a1-6)]Man(b1-4)GlcNAc(b1-4)GlcNAc
# Outline: as §1
# [5] = target: Gal(b1-4)GlcNAc(b1-3)Gal(b1-4)GlcNAc(b1-3)Gal(b1-4)GlcNAc(b1-3)Gal(b1-4)GlcNAc(b1-2)Man(a1-3)[Gal(b1-4)GlcNAc(b1-3)Gal(b1-4)GlcNAc(b1-3)Gal(b1-4)GlcNAc(b1-3)Gal(b1-4)GlcNAc(b1-2)Man(a1-6)]Man(b1-4)GlcNAc(b1-4)[Fuc(a1-6)]GlcNAc
# Outline: as §1
# [6] = target: Gal(b1-4)GlcNAc(b1-3)Gal(b1-4)GlcNAc(b1-3)Gal(b1-4)GlcNAc(b1-3)Gal(b1-4)GlcNAc(b1-2)[Gal(b1-4)GlcNAc(b1-3)Gal(b1-4)GlcNAc(b1-3)Gal(b1-4)GlcNAc(b1-3)Gal(b1-4)GlcNAc(b1-6)]Man(a1-6)[Gal(b1-4)GlcNAc(b1-3)Gal(b1-4)GlcNAc(b1-3)Gal(b1-4)GlcNAc(b1-3)Gal(b1-4)GlcNAc(b1-2)Man(a1-3)]Man(b1-4)GlcNAc(b1-4)[Fuc(a1-6)]GlcNAc
# Outline: as §1
# [7] = target: Gal(b1-4)GlcNAc(b1-3)Gal(b1-4)GlcNAc(b1-3)Gal(b1-4)GlcNAc(b1-3)Gal(b1-4)GlcNAc(b1-3)Gal(b1-4)GlcNAc(b1-2)Man(a1-3)[Gal(b1-4)GlcNAc(b1-3)Gal(b1-4)GlcNAc(b1-3)Gal(b1-4)GlcNAc(b1-3)Gal(b1-4)GlcNAc(b1-3)Gal(b1-4)GlcNAc(b1-2)Man(a1-6)]Man(b1-4)GlcNAc(b1-4)GlcNAc
# Outline: as §1
# [8] = target: Gal(b1-4)GlcNAc(b1-3)Gal(b1-4)GlcNAc(b1-3)Gal(b1-4)GlcNAc(b1-3)Gal(b1-4)GlcNAc(b1-3)Gal(b1-4)GlcNAc(b1-2)Man(a1-3)[Gal(b1-4)GlcNAc(b1-3)Gal(b1-4)GlcNAc(b1-3)Gal(b1-4)GlcNAc(b1-3)Gal(b1-4)GlcNAc(b1-3)Gal(b1-4)GlcNAc(b1-2)Man(a1-6)]Man(b1-4)GlcNAc(b1-4)[Fuc(a1-6)]GlcNAc
# Outline: as §1
# [9] = target: Gal(b1-4)GlcNAc(b1-3)Gal(b1-4)GlcNAc(b1-3)Gal(b1-4)GlcNAc(b1-3)Gal(b1-4)GlcNAc(b1-3)Gal(b1-4)GlcNAc(b1-2)[Gal(b1-4)GlcNAc(b1-3)Gal(b1-4)GlcNAc(b1-3)Gal(b1-4)GlcNAc(b1-3)Gal(b1-4)GlcNAc(b1-3)Gal(b1-4)GlcNAc(b1-6)]Man(a1-6)[Gal(b1-4)GlcNAc(b1-3)Gal(b1-4)GlcNAc(b1-3)Gal(b1-4)GlcNAc(b1-3)Gal(b1-4)GlcNAc(b1-3)Gal(b1-4)GlcNAc(b1-2)Man(a1-3)]Man(b1-4)GlcNAc(b1-4)[Fuc(a1-6)]GlcNAc
# Outline: as §1
# [10] = target: Gal(b1-4)GlcNAc(b1-3)Gal(b1-4)GlcNAc(b1-3)Gal(b1-4)GlcNAc(b1-3)Gal(b1-4)GlcNAc(b1-3)Gal(b1-4)GlcNAc(b1-3)Gal(b1-4)GlcNAc(b1-2)Man(a1-3)[Gal(b1-4)GlcNAc(b1-3)Gal(b1-4)GlcNAc(b1-3)Gal(b1-4)GlcNAc(b1-3)Gal(b1-4)GlcNAc(b1-3)Gal(b1-4)GlcNAc(b1-3)Gal(b1-4)GlcNAc(b1-2)Man(a1-6)]Man(b1-4)GlcNAc(b1-4)GlcNAc
# Outline: as §1
# [11] = target: Gal(b1-4)GlcNAc(b1-3)Gal(b1-4)GlcNAc(b1-3)GalNAc
# Outline: as §1
# [12] = target: Gal(b1-4)GlcNAc(b1-3)Gal(b1-4)GlcNAc(b1-3)[Gal(b1-4)GlcNAc(b1-3)Gal(b1-4)GlcNAc(b1-6)]GalNAc
# Outline: as §1
# [13] = target: Gal(b1-4)GlcNAc(b1-3)Gal(b1-4)GlcNAc(b1-6)[Gal(b1-3)]GalNAc
# Outline: as §1
# [14] = target: Gal(b1-4)GlcNAc(b1-3)Gal(b1-4)[Fuc(a1-3)]GlcNAc(b1-3)Gal(b1-4)[Fuc(a1-3)]GlcNAc
# Outline: as §1
# [15] = target: Gal(b1-4)GlcNAc(b1-3)GalNAc
# Outline: as §1
# [16] = target: Gal(b1-4)GlcNAc(b1-3)[Fuc(a1-3)GlcNAc(b1-6)]Gal(b1-4)Glc
# Outline: as §1
# [17] = target: Gal(b1-4)GlcNAc(b1-3)[Gal(b1-4)GlcNAc(b1-6)]Gal(b1-4)GlcNAc
# Outline: as §1
# [18] = target: Gal(b1-4)GlcNAc(b1-3)[GlcNAc(b1-6)]Gal(b1-4)GlcNAc
# Outline: as §1
# [19] = target: Gal(b1-4)GlcNAc(b1-6)Gal(b1-4)GlcNAc
# Outline: as §1
binder,measurement,setting,value
FimA (Actinomyces oris) (protein) MHHHHHHSSGVDLGTENLYFQSNAETPNYGNIKTDATGSLVIHKHLTGGGKDIGTPTGTAQNADDKGPAVEGVVFTAYPITDINLKDPAGWDTISNLSRTGVPDSACANPAAPTLGAHQFGTPKVSPATTKEGLATITEMPVQAYLVCETTTPGDIVQKAKPFVVTIPHPNTAAGADGQWIYDVNVYPKNEAIDVDKTIQAQKLNGYGVGSLIKFPVESTAPTLDAKSFYKYFQLKDTLDERLSEVTATDVSLEGTPLQPTDYKVETKQQTVTVTFTAEGLKKIKAAPGKKVSAVFQGKVTKAGNGAITNRAQVISDTLYAEQPPTPETPPTDPENPPTSDEVISRWGDLSIKKVDTHQQGQTKAGLQGAQFQLYKAKNAYANTCSNEKEGAPIAINGQTTLTTDAQGAIDIKGLFISDSIDGADRDNQVNAMERCYVLVETKAPAGYVLPAGNGAATPVKVKAGEETTDNVTVENTKQSVPGLPLTG,glycan array binding signal (z-score),[1],0.495
same,glycan array binding signal (z-score),[2],0.266
same,glycan array binding signal (z-score),[3],-0.366
same,glycan array binding signal (z-score),[4],0.065
same,glycan array binding signal (z-score),[5],-0.304
same,glycan array binding signal (z-score),[6],0.025
same,glycan array binding signal (z-score),[7],3.42
same,glycan array binding signal (z-score),[8],-0.231
same,glycan array binding signal (z-score),[9],5.1
same,glycan array binding signal (z-score),[10],0.513
same,glycan array binding signal (z-score),[11],0.628
same,glycan array binding signal (z-score),[12],-0.016
same,glycan array binding signal (z-score),[13],0.786
same,glycan array binding signal (z-score),[14],-0.613
same,glycan array binding signal (z-score),[15],-0.152
same,glycan array binding signal (z-score),[16],-0.158
same,glycan array binding signal (z-score),[17],0.707
same,glycan array binding signal (z-score),[18],-0.534
same,glycan array binding signal (z-score),[19],-0.553

# Part of the list above, with tabs:
binder	measurement	setting	value
FimA (Actinomyces oris) (protein) MHHHHHHSSGVDLGTENLYFQSNAETPNYGNIKTDATGSLVIHKHLTGGGKDIGTPTGTAQNADDKGPAVEGVVFTAYPITDINLKDPAGWDTISNLSRTGVPDSACANPAAPTLGAHQFGTPKVSPATTKEGLATITEMPVQAYLVCETTTPGDIVQKAKPFVVTIPHPNTAAGADGQWIYDVNVYPKNEAIDVDKTIQAQKLNGYGVGSLIKFPVESTAPTLDAKSFYKYFQLKDTLDERLSEVTATDVSLEGTPLQPTDYKVETKQQTVTVTFTAEGLKKIKAAPGKKVSAVFQGKVTKAGNGAITNRAQVISDTLYAEQPPTPETPPTDPENPPTSDEVISRWGDLSIKKVDTHQQGQTKAGLQGAQFQLYKAKNAYANTCSNEKEGAPIAINGQTTLTTDAQGAIDIKGLFISDSIDGADRDNQVNAMERCYVLVETKAPAGYVLPAGNGAATPVKVKAGEETTDNVTVENTKQSVPGLPLTG	glycan array binding signal (z-score)	[7]	3.42
same	glycan array binding signal (z-score)	[17]	0.707
